Experimental data: PubChem BioAssay AID504784 (Drosophila RNAi Screening Center, 2011)
In all, the deposit lists about 17,000 reagents; shown is an unselected part of those that have a named target and a result. 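Each column is one replicate's B-score; the combined score over replicates was not deposited, so single values may mislead.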 The numbers tell different reagents against one gene apart. Names joined by + are all predicted targets of the reagent.

Assay: 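Search for regulators of lipid droplet storage in oleate-fed fly cells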 (primary screen)
Cells: Drosophila Kc167 embryonic cells
Knock-down reagent: long dsRNA against Drosophila genes, about 250 ng dsRNA per well
Timing: 4 days
Conditions: cells fed 400 µM oleic acid bound to BSA
Measurement: 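Cells imaged and segmented; ratio of lipid droplet area to nuclear area, log-transformed, then normalised as a B-score over the screen; higher means more stored lipid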
Reading the numbers: droplet/nuclear area B-score: higher = more stored lipid (overstorage)

gene,reagent no.,"droplet/nuclear area B-score, replicate 1","droplet/nuclear area B-score, replicate 2","droplet/nuclear area B-score, replicate 3"
CG17597,1,0.0481,-2.59,
Cndp2,1,0.00499,-0.977,
CG32192,1,0.973,1.43,
CG10433,1,-0.604,0.604,
TSG101,1,0.36,0.791,
qkr58E-2,1,-2.07,-0.639,
CG13258,1,1.65,1.07,
CG17724,1,1.27,-0.00418,
CG5849,1,-0.484,0.261,
Pp1-Y2,1,-0.363,1.23,
CG17803,1,1.13,0.603,-0.194
CG17803,2,1.72,-0.355,
Cht6,1,-1.45,-1.26,0.641
Cht6,2,0.906,0.79,1.73
Cht6,3,0.701,0.712,-0.178
Cht6,4,-1.13,-1.38,
CG6791,1,-2.89,1.08,
CG7386,1,-1.86,0.937,
GlcAT-P,1,-1.37,-0.922,
GlcAT-P,2,-0.386,1.58,
Or49b,1,-0.392,-0.00209,
Dscam3,1,-1.47,0.322,
Dscam3,2,-1.7,-1.62,
CG13251,1,0.19,0.417,
Grasp65,1,-1.38,0.462,
mRpS18A,1,4.45,4.89,
CG14861,1,0.552,-1.17,
CG31199,1,-0.845,-0.432,
CR32028 (retired record),1,-0.0126,-0.132,
CG8851,1,-0.897,-1.51,
CG5024,1,-0.131,1.28,
CG15465,1,-0.648,0.661,
Cpr65Eb,1,0.00748,-0.685,
CG42336,1,0.108,-0.739,
CG42336,2,0.134,-1.6,
CG42336,3,-0.789,-1.26,-0.155

The list goes on, starting with the last 8 of the part before.
gene,reagent no.,"droplet/nuclear area B-score, replicate 1","droplet/nuclear area B-score, replicate 2","droplet/nuclear area B-score, replicate 3"
CR32028 (retired record),1,-0.0126,-0.132,
CG8851,1,-0.897,-1.51,
CG5024,1,-0.131,1.28,
CG15465,1,-0.648,0.661,
Cpr65Eb,1,0.00748,-0.685,
CG42336,1,0.108,-0.739,
CG42336,2,0.134,-1.6,
CG42336,3,-0.789,-1.26,-0.155
side-VII,1,-0.0335,10.3,
CG12729,1,-0.15,1.13,
CG31642,1,1.21,2.47,
Tbh,1,0.355,1.29,
Cyp6g1,1,-0.627,0.428,
CG3857,1,-0.0529,-0.681,
CG31524,1,-0.107,-0.705,
CG3558,1,0.0662,-0.419,
MED14,1,-0.869,-0.21,
CG5561,1,0.131,-4.01,
CG9449,1,-0.316,-1.3,
CG13193,1,-0.966,0.00126,
CG13996,1,1.7,1.44,
Gr22e,1,0.696,-0.659,
l(2)27Cb (retired record),1,0.362,0.676,
Pal1,1,1.08,0.218,
Mesh1,1,-0.0592,2,
CG11298,1,1.34,-0.248,
TwdlF,1,-0.239,-0.924,-0.783
NSD,1,0.19,-0.487,
CG18747,1,-0.0174,1.67,
CG31627,1,5.11,-0.558,
CG33992 (retired record) + CG43755,1,0.0777,0.429,
niki,1,0.746,0.964,
CG13042,1,-0.0934,0.357,
Prx6c,1,1.06,0.255,
CG5861,1,-1.1,-1.66,
Rrp46,1,0.00492,-0.0143,
CR30029,1,-0.197,-2.33,
CG33099,1,0.0751,-0.0811,
CG8854,1,-0.883,-0.539,
CG1265,1,-0.211,0.0736,
CG32606 (retired record),1,-0.0162,1.47,
CG32606 (retired record),2,-0.523,1.13,
CG32606 (retired record),3,-0.412,1.53,-0.52
CG32606 (retired record),4,0.798,-0.000427,-0.677
CG32606 (retired record),5,-0.435,0.0328,
CG1529,1,-0.497,-0.409,-0.0871
SmydA-6,1,-0.0968,-0.171,
CG11257,1,-0.849,0.332,
Gclm,1,-1.18,-0.044,
CG11307,1,-0.00265,-1.04,-2.18
CG16974,1,-0.0526,-0.561,
CG12674,1,-0.00917,-1.18,
CG3735,1,-0.519,-0.556,
Gyc76C + CG42637,1,-0.605,-0.372,0.0403
fd96Cb,1,0.202,0.899,
